No constants are given. Whether binding was seen depends on the method and setting. In cells and extracts the contact can be indirect. These calls come from enrichment with a bait or labelling near it, and not all partners need be listed.
Target: TRIM25 (as used in the co-IP with MS and in the KEAP1 and Nrf2 experiments of the supplement) (UniProt Q14258)
Assay: affinity purification with mass spectrometry; combination of co-IP and MS to find target proteins of TRIM25 (Fig. S4D); cells not given

Amino acid sequences for entries named in this document (tags omitted).
UniProt Q14258: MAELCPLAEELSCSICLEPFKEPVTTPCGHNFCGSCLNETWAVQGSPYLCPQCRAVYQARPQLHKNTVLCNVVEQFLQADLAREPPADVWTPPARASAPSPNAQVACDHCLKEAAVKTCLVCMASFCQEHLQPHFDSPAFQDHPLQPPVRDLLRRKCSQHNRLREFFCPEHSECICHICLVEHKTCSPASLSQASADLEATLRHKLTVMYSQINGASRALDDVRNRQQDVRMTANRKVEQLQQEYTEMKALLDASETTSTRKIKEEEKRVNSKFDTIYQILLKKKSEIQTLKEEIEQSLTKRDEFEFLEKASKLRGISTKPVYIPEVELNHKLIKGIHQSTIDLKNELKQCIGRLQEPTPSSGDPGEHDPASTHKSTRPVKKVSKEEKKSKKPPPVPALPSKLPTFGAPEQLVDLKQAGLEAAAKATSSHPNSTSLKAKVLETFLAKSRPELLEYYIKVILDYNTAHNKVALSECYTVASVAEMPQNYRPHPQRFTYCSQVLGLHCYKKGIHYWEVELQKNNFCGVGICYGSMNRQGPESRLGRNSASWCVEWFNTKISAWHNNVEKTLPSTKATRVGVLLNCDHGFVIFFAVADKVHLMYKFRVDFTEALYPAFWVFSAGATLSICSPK
UniProt Q14145: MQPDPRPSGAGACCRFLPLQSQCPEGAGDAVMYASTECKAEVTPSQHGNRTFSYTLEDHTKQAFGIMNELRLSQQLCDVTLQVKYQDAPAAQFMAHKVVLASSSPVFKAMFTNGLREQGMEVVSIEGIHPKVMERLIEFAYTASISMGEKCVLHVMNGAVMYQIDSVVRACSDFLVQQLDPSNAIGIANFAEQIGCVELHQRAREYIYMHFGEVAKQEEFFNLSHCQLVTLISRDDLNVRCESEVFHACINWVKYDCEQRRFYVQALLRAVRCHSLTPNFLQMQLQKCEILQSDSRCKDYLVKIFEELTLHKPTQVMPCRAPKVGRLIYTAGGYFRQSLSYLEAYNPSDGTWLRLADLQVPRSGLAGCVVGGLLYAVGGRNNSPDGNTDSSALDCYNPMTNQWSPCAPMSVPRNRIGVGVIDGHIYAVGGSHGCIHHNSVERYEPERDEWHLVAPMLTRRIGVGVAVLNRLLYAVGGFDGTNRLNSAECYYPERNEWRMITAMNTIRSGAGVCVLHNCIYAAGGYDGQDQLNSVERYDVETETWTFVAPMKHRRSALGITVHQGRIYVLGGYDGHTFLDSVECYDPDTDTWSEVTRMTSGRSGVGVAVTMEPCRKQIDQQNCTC

“Kelch-like ECH-associated protein 1 (KEAP1) (from UniProt Q14145 1-624)” was tested, and the binding was “binds”.
